{"source": "PubChem BioAssay AID652259 (Drosophila RNAi Screening Center, 2013)", "purpose": "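Identify new Wingless signalling regulators in fly cells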 (primary screen)", "cells": "Drosophila clone 8 imaginal disc epithelial cells", "reagents": "long dsRNA against Drosophila genes", "conditions": "pathway stimulated by co-transfected Wingless expression plasmid", "detection": "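Firefly luciferase from a tcf-site Wingless reporter, measured alongside co-transfected Renilla luciferase that tracks transfection; pathway stimulated by a Wingless plasmid; the firefly-to-Renilla ratio is not deposited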", "scale": "firefly reporter light: higher = more Wg reporter light, before normalisation; Renilla control light: higher = more transfected or surviving cells", "rule for the call": "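Strong candidates differ from their plate mean by at least two out of four per-plate statistical tests; weak candidates meet just one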", "meaning of the calls": "active = candidate regulator (raises or lowers reporter); inactive = not a candidate", "note": "The deposit covers about 22,000 reagents; this is an unselected part of those with a known target gene and a result. Of all reagents, 233 (1.1%) were called active. 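Light values are raw, unnormalised plate reads; the ratio scores behind the reporter calls were not deposited.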 Entries without a mark were called inactive. The numbers tell different reagents against one gene apart. A plus sign joins genes that one reagent is predicted to hit. No sequences are given here. Not stated in the record: the amount of reagent, the time to read-out, the dose of the treatment."}
{"gene": "Tsp42Eb + CG30160", "reagent": 1, "firefly reporter light, replicate 1": 28181, "Renilla control light, replicate 1": 12517}
{"gene": "Tsp42Eb + CG30160", "reagent": 2, "firefly reporter light, replicate 1": 3288, "firefly reporter light, replicate 2": 7610, "Renilla control light, replicate 1": 896, "Renilla control light, replicate 2": 3356}
{"gene": "TwdlJ", "reagent": 1, "firefly reporter light, replicate 1": 7184, "Renilla control light, replicate 1": 3897}
{"gene": "Klp67A", "reagent": 1, "firefly reporter light, replicate 1": 9880, "Renilla control light, replicate 1": 3692}
{"gene": "Obp49a", "reagent": 1, "firefly reporter light, replicate 1": 6.83e5, "firefly reporter light, replicate 2": 7.60e5, "Renilla control light, replicate 1": 2.78e5, "Renilla control light, replicate 2": 2.64e5}
{"gene": "mAcon2", "reagent": 1, "firefly reporter light, replicate 1": 13209, "Renilla control light, replicate 1": 4148}

Part of the list above, limited to “Renilla control light, replicate 1”.
Tsp42Eb + CG30160 #2 = 896
TwdlJ = 3897

More results:
{"gene": "tkv", "reagent": 1, "firefly reporter light, replicate 1": 28947, "Renilla control light, replicate 1": 11232}
{"gene": "tkv", "reagent": 2, "firefly reporter light, replicate 1": 5335, "Renilla control light, replicate 1": 2720}
{"gene": "tkv", "reagent": 3, "firefly reporter light, replicate 1": 5.45e5, "firefly reporter light, replicate 2": 5.44e5, "Renilla control light, replicate 1": 1.92e5, "Renilla control light, replicate 2": 19942}
{"gene": "DIP-theta", "reagent": 1, "firefly reporter light, replicate 1": 21750, "Renilla control light, replicate 1": 9074}
{"gene": "DIP-theta", "reagent": 2, "firefly reporter light, replicate 1": 2432, "firefly reporter light, replicate 2": 4849, "Renilla control light, replicate 1": 757, "Renilla control light, replicate 2": 785}
{"gene": "DIP-theta", "reagent": 3, "firefly reporter light, replicate 1": 4240, "firefly reporter light, replicate 2": 7715, "Renilla control light, replicate 1": 720, "Renilla control light, replicate 2": 909}
{"gene": "l(2)05287", "reagent": 1, "firefly reporter light, replicate 1": 11266, "Renilla control light, replicate 1": 4548}
{"gene": "l(2)05287", "reagent": 2, "firefly reporter light, replicate 1": 2379, "firefly reporter light, replicate 2": 5571, "Renilla control light, replicate 1": 817, "Renilla control light, replicate 2": 2576}
{"gene": "Ykt6", "reagent": 1, "firefly reporter light, replicate 1": 2493, "firefly reporter light, replicate 2": 5064, "Renilla control light, replicate 1": 873, "Renilla control light, replicate 2": 1444}
{"gene": "CG30291", "reagent": 1, "firefly reporter light, replicate 1": 11186, "Renilla control light, replicate 1": 6221}
{"gene": "CG43278 (retired record)", "reagent": 1, "firefly reporter light, replicate 1": 5227, "Renilla control light, replicate 1": 1210}
